# In PubChem BioAssay AID2685 (National Center for Advancing Translational Sciences (NCATS), 2010):
# The other results are listed elsewhere or left out. The main result of the screen is listed elsewhere. These columns were measured beside it and carry no call. Most of these compounds were active or inconclusive in the main read-out, so they are no random draw. Potencies come from curve fits of mixed quality, noted in brackets.
# Assay: qHTS Assay for Lipid Storage Modulators in Drosophila S3 Cells;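 for cell number change: cells counted by Cell Tracker Red CMTPX staining in the red channel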
# Conditions: BODIPY lipid droplet fluorescence, 18-24 h; for cell number change: measured here: cell count max response, cells fed with added oleic acid
# Method in brief: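 Laser-scanning cytometry quantifies lipid droplet accumulation (500–530 nm total intensity; droplet/cell object ratio) in oleic acid-fed (400 uM added) Drosophila S3 cells treated with a concentration series. 20 uM Triacsin C defined 100% inhibition.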
# [1] = measured here: lipid fluorescence (Fed channel) AC50, cells fed with added oleic acid
# [2] = measured here: cell number channel AC50, cells fed with added oleic acid
SMILES,cell number change,AC50 [1],AC50 [2]
CCOc1ccccc1NC(=S)N1CCN(c2ccccc2F)CC1,11.9%,–,–
COc1cc2cnncc2cc1OC,20.8%,"32.6 µM [rising, single point]",–
O=C1C(Cc2ccccc2)Nc2ncnc(N3CCc4ccccc4C3)c2N1Cc1ccc(Cl)cc1 (stereo unspecified),8.25%,"3.66 µM [rising, single point]","0.82 µM [rising, single point]"
N#CC(C#N)=Cc1cc2ccccc2nc1N1CCOCC1,-19.4%,"2.91 µM [rising, partial curve]",–
COc1ccc(NC(=O)C2CCCN2S(=O)(=O)c2ccc3c(c2)CCC(=O)N3)cc1 (stereo unspecified),-61.2%,"6.51 µM [rising, single point]","29.1 µM [falling, single point]"
O=C(CCC(=O)c1cccs1)Nc1ccc(F)c(F)c1F,62.3%,"29.1 µM [rising, single point]","29.1 µM [rising, single point]"
O=C(Nc1ccc(Br)cc1)c1cccc(OC(=S)N2CCOCC2)c1,-21.1%,"6.31 µM [rising, single point]",–
O=C(NCC1OCCc2ccccc21)c1ccc(NC(=O)c2cccc(Br)c2)cc1 (stereo unspecified),5.44%,"0.366 µM [rising, full curve, poor fit]",–
CCN(CC)S(=O)(=O)c1cccc(NC(=O)C2SC(=Nc3ccc(C)cc3C)C(C(=O)NC(C)COC)=C2N)c1 (stereo unspecified),9.41%,–,–
COc1cc2c3c(c1)c(C1=NC(=S)NC1=O)c(O)n3C(C)(C)C=C2C,4.66%,"4.11 µM [falling, partial curve, poor fit]",–
O=C(COc1ccccc1C(=O)N/N=C\c1ccc(O)c(O)c1)N/N=C/c1ccc(O)c(O)c1,-34.3%,–,"23.1 µM [falling, single point]"
Cc1ccc(O)c(C(=O)c2cnn(C(=O)Cc3csc(C)n3)c2)c1,10.7%,"0.82 µM [rising, single point]",–
CCOc1ccc(NS(=O)(=O)c2ccc(C)c(C(=O)NCCCn3ccnc3)c2)cc1,–,"0.58 µM [rising, full curve]","0.366 µM [rising, partial curve]"
CCCCn1c(N)c(N(CCOC)C(=O)COC(=O)COc2ccccc2C#N)c(=O)[nH]c1=O,–,"29.1 µM [rising, single point]",–
COc1ccc(NS(=O)(=O)c2ccc(N3CCOCC3)c(NC(=O)c3ccccc3Cl)c2)cc1,1.75%,"1.84 µM [falling, partial curve, poor fit]",–
O=C(O)C1(P(=O)(c2ccc(Cl)cc2)c2ccc(Cl)cc2)CCCC1,2.09%,"4.61 µM [falling, partial curve]","2.31 µM [falling, partial curve]"
CN(C)S(=O)(=O)c1cccc(NC(=O)COC(=O)c2cccc(S(=O)(=O)N3CCc4ccccc4C3)c2)c1,-83.3%,–,"16.4 µM [falling, single point]"
COc1ccc(C(=O)NC(=S)NCCO)cc1Br,0.697%,"29.1 µM [falling, single point]",–
COc1ccc(CNC(=O)C2CCCN(S(=O)(=O)c3c(C)nn(C)c3C)C2)cc1 (stereo unspecified),30.2%,"29.1 µM [rising, single point]",–
O=C(O)c1ccc(-c2ccc(/C=N/Nc3ccc([N+](=O)[O-])cc3)o2)cc1,24%,–,–

# 14 entries from above in another layout.
SMILES | cell number change | AC50 [1] | AC50 [2]
CCOc1ccccc1NC(=S)N1CCN(c2ccccc2F)CC1 | 11.9% | – | –
COc1cc2cnncc2cc1OC | 20.8% | 32.6 µM [rising, single point] | –
O=C1C(Cc2ccccc2)Nc2ncnc(N3CCc4ccccc4C3)c2N1Cc1ccc(Cl)cc1 (stereo unspecified) | 8.25% | 3.66 µM [rising, single point] | 0.82 µM [rising, single point]
COc1ccc(NC(=O)C2CCCN2S(=O)(=O)c2ccc3c(c2)CCC(=O)N3)cc1 (stereo unspecified) | -61.2% | 6.51 µM [rising, single point] | 29.1 µM [falling, single point]
O=C(CCC(=O)c1cccs1)Nc1ccc(F)c(F)c1F | 62.3% | 29.1 µM [rising, single point] | 29.1 µM [rising, single point]
O=C(Nc1ccc(Br)cc1)c1cccc(OC(=S)N2CCOCC2)c1 | -21.1% | 6.31 µM [rising, single point] | –
CCN(CC)S(=O)(=O)c1cccc(NC(=O)C2SC(=Nc3ccc(C)cc3C)C(C(=O)NC(C)COC)=C2N)c1 (stereo unspecified) | 9.41% | – | –
O=C(COc1ccccc1C(=O)N/N=C\c1ccc(O)c(O)c1)N/N=C/c1ccc(O)c(O)c1 | -34.3% | – | 23.1 µM [falling, single point]
Cc1ccc(O)c(C(=O)c2cnn(C(=O)Cc3csc(C)n3)c2)c1 | 10.7% | 0.82 µM [rising, single point] | –
CCCCn1c(N)c(N(CCOC)C(=O)COC(=O)COc2ccccc2C#N)c(=O)[nH]c1=O | – | 29.1 µM [rising, single point] | –
COc1ccc(NS(=O)(=O)c2ccc(N3CCOCC3)c(NC(=O)c3ccccc3Cl)c2)cc1 | 1.75% | 1.84 µM [falling, partial curve, poor fit] | –
CN(C)S(=O)(=O)c1cccc(NC(=O)COC(=O)c2cccc(S(=O)(=O)N3CCc4ccccc4C3)c2)c1 | -83.3% | – | 16.4 µM [falling, single point]
COc1ccc(C(=O)NC(=S)NCCO)cc1Br | 0.697% | 29.1 µM [falling, single point] | –
O=C(O)c1ccc(-c2ccc(/C=N/Nc3ccc([N+](=O)[O-])cc3)o2)cc1 | 24% | – | –

# Next compounds:

SMILES,cell number change,AC50 [1],AC50 [2]
O=C(Nc1ccc(S(=O)(=O)NCc2cccnc2)cc1)c1ccccc1Cl,-15.6%,"29.1 µM [falling, single point]",–
COc1cccc(/C=N/NC(=O)CSc2ccccc2C)c1OC,39.8%,"7.31 µM [rising, partial curve]","29.1 µM [rising, single point]"
CC(=O)Nc1ccc(NS(=O)(=O)c2ccccc2)cc1,0.679%,"0.146 µM [falling, full curve, poor fit]","0.13 µM [falling, full curve, poor fit]"
O=C(N[C@@H](Cc1ccc(Br)cc1)C(=O)O)OCC1c2ccccc2-c2ccccc21,18%,–,–
COCCOC(=O)c1sc(=S)n(CCOC)c1N,-35.3%,–,"32.6 µM [falling, single point]"
O=C(/C=C/c1c(F)cccc1Cl)NCc1ccco1,13.4%,"16.4 µM [rising, single point]",–
COc1ccc(/C=C/C(=O)c2ccc3c(c2)OCO3)cc1OC,-14.1%,–,–
C=CCn1c(C)cc(C(=O)CSc2nc3ccccc3[nH]2)c1C,-25%,"1.84 µM [rising, single point]",–
COc1ccc(CCC(=O)OCC(=O)c2c(N)n(CC(C)C)c(=O)n(C)c2=O)cc1,-1.74%,"4.11 µM [falling, single point]","4.11 µM [rising, single point]"
O=C(CSc1nnnn1-c1cccnc1)Nc1ccc(OCc2ccccc2)cc1,-37%,"6.51 µM [falling, full curve, poor fit]","0.116 µM [falling, full curve, poor fit]"
Cc1ccc2[nH]c(=O)c(CN(CCCN3CCOCC3)C(=O)NC3CCCCC3)cc2c1,-0.0124%,–,–
COc1cc(OC)c(/C=N/n2c(C)nnc2C)c(OC)c1,7.49%,"14.6 µM [falling, single point]",–
O=C(CN1CCOCC1)Nc1c2c(nc3ccccc13)N(Cc1ccccc1)CC2,–,"1.64 µM [rising, partial curve]",–
COc1ccc(Cn2c(C)ccc2C)cc1,5.4%,"0.184 µM [rising, full curve]",–
Cc1cccc(Nc2nc(N)c([N+](=O)[O-])c(NCc3ccccc3)n2)c1,-42%,–,"29.1 µM [falling, single point]"
CCOC(=O)c1ccc(N2C(=O)CC(N3CCC(O)(c4ccc(Br)cc4)CC3)C2=O)cc1 (stereo unspecified),-7.84%,–,–
Nc1nonc1-c1nc2ccccc2n1CC(=O)N/N=C\c1ccc(-c2ccc(Cl)cc2)o1,-45.4%,–,"2.31 µM [falling, full curve, poor fit]"
CC1CN(C(=O)/C(C#N)=C2\N=C(NC(=O)c3ccccc3Cl)c3ccccc32)CC(C)O1 (stereo unspecified),18.7%,"29.1 µM [rising, single point]",–
Cn1c(=O)[nH]c(=O)c2c1nc(CN1CCN(c3ccc(F)cc3)CC1)n2CCc1ccccc1,14.8%,"16.4 µM [rising, partial curve, poor fit]",–
CCN(CC)C(=O)c1cccc(NC(=O)CC23CC4CC(CC(C4)C2)C3)c1,–,"4.11 µM [falling, partial curve]",–

SMILES,cell number change,AC50 [1],AC50 [2]
NS(=O)(=O)c1ccc(CNC(=O)c2scc3c2CCCC3)cc1,-31.1%,–,"14.6 µM [falling, single point]"
CCCS(=O)(=O)N1CCN(c2ccccc2F)CC1,–,–,"0.58 µM [falling, single point]"
COc1ccccc1NC(=O)CCN1C(=O)/C(=C/c2cc(OC)c(OC)c(OC)c2)SC1=S,2.55%,"29.1 µM [falling, single point]",–
CC(C)N(Cc1nc(-c2ccccc2)no1)C(=O)c1ccc(Br)o1,-5.95%,"0.731 µM [rising, full curve]",–
Cc1c(OCC(=O)N(C)C)ccc2c3c(c(=O)oc12)CCCCC3,104%,"29.1 µM [rising, partial curve]","29.1 µM [rising, single point]"
CC(C)(C)c1ccc(C(=O)NNC(=O)Cc2ccccc2)cc1,48.3%,"0.651 µM [rising, single point]","0.0259 µM [rising, full curve, poor fit]"
O=C(Nc1ccc2c(c1)OCO2)c1ccccc1SCC(=O)N1CCCC1,-3.27%,–,–
CCOC(=O)CSc1nc(=O)n2ccc(C)cc2n1,16.5%,"0.00461 µM [rising, full curve, poor fit]","0.00461 µM [rising, full curve, poor fit]"
COc1ccc(NC(=O)c2[nH]ncc2[N+](=O)[O-])cc1,19.9%,–,–
Cc1ccc(-c2ccnc3nc(-n4cccc4)nn23)o1,14.2%,–,"0.58 µM [rising, full curve, poor fit]"
CC(C)(C)c1ccc(-n2ncc3c2CCCC3NC(=O)CN2CCOC2=O)cc1 (stereo unspecified),-42.6%,"10.3 µM [falling, partial curve]","29.1 µM [falling, single point]"
COc1ccc(-c2nnn(CCC(=O)O)n2)cc1,5.77%,"1.03 µM [falling, full curve, poor fit]",–
CC(C)N(CCCNC(=O)C1CCN(C(=O)c2cc3sccc3n2C)CC1)Cc1ccccc1,14.7%,"29.1 µM [rising, partial curve]",–
COc1ccc(S(=O)(=O)NCc2cccs2)cc1,-87.6%,–,"3.66 µM [falling, full curve]"
O=c1cc[nH]c(=O)[nH]1,-21.7%,"0.82 µM [falling, full curve, poor fit]",–
CCOc1ccc2nc(/N=C/c3nc(-c4ccccc4)oc3O)sc2c1,–,–,"6.51 µM [rising, single point]"
O=C(Nc1ccc(S(=O)(=O)N2CCCCC2)cc1)c1ccc(CN2CCOCC2)cc1,-21.2%,"16.4 µM [falling, partial curve]",–
O=C(CC(=O)c1ccccc1)Nc1ccc2c(c1)OCCO2,-21.7%,–,–
Cc1sc2ncnc(N3CCN(Cc4ccccc4)CC3)c2c1-c1ccc(F)cc1,19.2%,"0.651 µM [rising, partial curve, poor fit]","5.8 µM [rising, single point]"
